The text below walks through data of US10239893B2, “Controlling the isomerization rate of Azo-BF2 switches using aggregation” (THE TRUSTEES OF DARTMOUTH COLLEGE, priority 2013, dated 2019).

A short description of this series: Photoisomerization quantum yields. In kind it is physicochemical.

Take `COc1ccc(N=[N+]2C(C#N)=C3C=Cc4ccccc4N3[B-]2(F)F)cc1` [Compound 2]: the “photoisomerization quantum yield Φcis→trans” value came to 95% and the “photoisomerization quantum yield Φtrans→cis” value worked out at 71%.
For `COc1ccc(N=[N+]2C(C#N)=C3C=Cc4ccccc4N3[B-]2(F)F)c(OC)c1` [Compound 3] the same measures were 51% and 42%.
